{"source": "paper PMC11157767", "about": "(Molecular Cancer, 2024)", "tested_on": "TFG-MET allograft tumors", "experiment": "RNA-sequencing, differential expression and GSEA of TFG-MET allograft tumors", "format": "in vivo, mouse", "conditions": "CAP v Veh", "description": "Error bars display standard error of mean, statistical significance was determined using t-test analysis. (****;p<0.0001, ***;p<0.001, **;p<0.01, *;p<0.05). […] Each dot represents an individual replicate. Error bars display standard error of the mean.\nEach dot represents one gene.", "note": "Further values from the same series stand in other lists.", "data": [{"smiles": "CNC(=O)c1ccc(-c2cnc3ncc(Cc4ccc5ncccc5c4)n3n2)cc1F", "note": "[Capmatinib]", "values": [{"measurement": "ES", "setting": "GOMF_GTPASE_BINDING", "result": -0.307}, {"measurement": "NES", "setting": "GOMF_GTPASE_BINDING, padj 0.0790502", "result": -1.379}, {"measurement": "ES", "setting": "GOMF_GUANYL_NUCLEOTIDE_EXCHANGE_FACTOR_ACTIVITY", "result": -0.3145}, {"measurement": "NES", "setting": "GOMF_GUANYL_NUCLEOTIDE_EXCHANGE_FACTOR_ACTIVITY, padj 0.0854011", "result": -1.393}, {"measurement": "ES", "setting": "GOMF_G_PROTEIN_COUPLED_CHEMOATTRACTANT_RECEPTOR_ACTIVITY", "result": 0.6196}, {"measurement": "NES", "setting": "GOMF_G_PROTEIN_COUPLED_CHEMOATTRACTANT_RECEPTOR_ACTIVITY, padj 0.00152281", "result": 2.249}, {"measurement": "ES", "setting": "GOMF_G_PROTEIN_COUPLED_RECEPTOR_ACTIVITY", "result": 0.2666}, {"measurement": "NES", "setting": "GOMF_G_PROTEIN_COUPLED_RECEPTOR_ACTIVITY, padj 0.000282843", "result": 1.567}, {"measurement": "ES", "setting": "GOMF_HELICASE_ACTIVITY", "result": -0.64}, {"measurement": "NES", "setting": "GOMF_HELICASE_ACTIVITY, padj 4.89838e-20", "result": -2.769}, {"measurement": "ES", "setting": "GOMF_HISTONE_BINDING", "result": -0.5265}, {"measurement": "NES", "setting": "GOMF_HISTONE_BINDING, padj 6.40741e-14", "result": -2.371}, {"measurement": "ES", "setting": "GOMF_HISTONE_LYSINE_N_METHYLTRANSFERASE_ACTIVITY", "result": -0.5659}, {"measurement": "NES", "setting": "GOMF_HISTONE_LYSINE_N_METHYLTRANSFERASE_ACTIVITY, padj 0.00141653", "result": -1.972}, {"measurement": "ES", "setting": "GOMF_HISTONE_METHYLTRANSFERASE_ACTIVITY", "result": -0.578}, {"measurement": "NES", "setting": "GOMF_HISTONE_METHYLTRANSFERASE_ACTIVITY, padj 4.07841e-5", "result": -2.113}, {"measurement": "ES", "setting": "GOMF_HORMONE_RECEPTOR_BINDING", "result": -0.3216}, {"measurement": "NES", "setting": "GOMF_HORMONE_RECEPTOR_BINDING, padj 0.0880974", "result": -1.395}, {"measurement": "ES", "setting": "GOMF_HYDROLASE_ACTIVITY_ACTING_ON_ESTER_BONDS", "result": -0.2542}, {"measurement": "NES", "setting": "GOMF_HYDROLASE_ACTIVITY_ACTING_ON_ESTER_BONDS, padj 0.0916898", "result": -1.229}, {"measurement": "ES", "setting": "GOMF_IMMUNE_RECEPTOR_ACTIVITY", "result": 0.4106}, {"measurement": "NES", "setting": "GOMF_IMMUNE_RECEPTOR_ACTIVITY, padj 2.36378e-5", "result": 2.046}, {"measurement": "ES", "setting": "GOMF_IMMUNOGLOBULIN_BINDING", "result": 0.7301}, {"measurement": "NES", "setting": "GOMF_IMMUNOGLOBULIN_BINDING, padj 0.000392792", "result": 2.335}, {"measurement": "ES", "setting": "GOMF_IMMUNOGLOBULIN_RECEPTOR_BINDING", "result": 0.5734}, {"measurement": "ES", "setting": "GOMF_INTRAMOLECULAR_TRANSFERASE_ACTIVITY", "result": -0.6685}, {"measurement": "NES", "setting": "GOMF_INTRAMOLECULAR_TRANSFERASE_ACTIVITY, padj 0.000264158", "result": -2.088}, {"measurement": "ES", "setting": "GOMF_KINASE_ACTIVITY", "result": -0.2546}, {"measurement": "NES", "setting": "GOMF_KINASE_ACTIVITY, padj 0.0762355", "result": -1.233}, {"measurement": "ES", "setting": "GOMF_LIGASE_ACTIVITY", "result": -0.4074}, {"measurement": "NES", "setting": "GOMF_LIGASE_ACTIVITY, padj 0.000514149", "result": -1.766}, {"measurement": "ES", "setting": "GOMF_LIGASE_ACTIVITY_FORMING_CARBON_OXYGEN_BONDS", "result": -0.5947}, {"measurement": "NES", "setting": "GOMF_LIGASE_ACTIVITY_FORMING_CARBON_OXYGEN_BONDS, padj 0.000318046", "result": -2.072}, {"measurement": "ES", "setting": "GOMF_LIPASE_ACTIVITY", "result": 0.3866}, {"measurement": "NES", "setting": "GOMF_LIPASE_ACTIVITY, padj 0.000299605", "result": 1.954}, {"measurement": "ES", "setting": "GOMF_LIPID_BINDING", "result": 0.1766}, {"measurement": "NES", "setting": "GOMF_LIPID_BINDING, padj 0.0918501", "result": 1.107}, {"measurement": "ES", "setting": "GOMF_LYSINE_N_METHYLTRANSFERASE_ACTIVITY", "result": -0.5094}, {"measurement": "NES", "setting": "GOMF_LYSINE_N_METHYLTRANSFERASE_ACTIVITY, padj 0.00197843", "result": -1.862}, {"measurement": "ES", "setting": "GOMF_MAP_KINASE_KINASE_KINASE_ACTIVITY", "result": -0.5228}, {"measurement": "ES", "setting": "GOMF_METHYLATED_HISTONE_BINDING", "result": -0.575}, {"measurement": "NES", "setting": "GOMF_METHYLATED_HISTONE_BINDING, padj 5.19742e-6", "result": -2.204}, {"measurement": "ES", "setting": "GOMF_MIRNA_BINDING", "result": -0.6168}, {"measurement": "NES", "setting": "GOMF_MIRNA_BINDING, padj 0.00196305", "result": -1.991}, {"measurement": "ES", "setting": "GOMF_MODIFICATION_DEPENDENT_PROTEIN_BINDING", "result": -0.4094}, {"measurement": "NES", "setting": "GOMF_MODIFICATION_DEPENDENT_PROTEIN_BINDING, padj 0.000709975", "result": -1.763}, {"measurement": "ES", "setting": "GOMF_MRNA_3_UTR_BINDING", "result": -0.5487}, {"measurement": "NES", "setting": "GOMF_MRNA_3_UTR_BINDING, padj 2.40849e-6", "result": -2.181}, {"measurement": "ES", "setting": "GOMF_MRNA_5_UTR_BINDING", "result": -0.7352}, {"measurement": "NES", "setting": "GOMF_MRNA_5_UTR_BINDING, padj 3.19533e-5", "result": -2.252}, {"measurement": "ES", "setting": "GOMF_MRNA_BINDING", "result": -0.5486}, {"measurement": "NES", "setting": "GOMF_MRNA_BINDING, padj 4.89838e-20", "result": -2.5124}, {"measurement": "ES", "setting": "GOMF_NAD_P_H_DEHYDROGENASE_QUINONE_ACTIVITY", "result": 0.5908}, {"measurement": "NES", "setting": "GOMF_NAD_P_H_DEHYDROGENASE_QUINONE_ACTIVITY, padj 3.96987e-6", "result": 2.575}, {"measurement": "ES", "setting": "GOMF_NUCLEAR_HORMONE_RECEPTOR_BINDING", "result": -0.3346}, {"measurement": "ES", "setting": "GOMF_NUCLEASE_ACTIVITY", "result": -0.4291}, {"measurement": "NES", "setting": "GOMF_NUCLEASE_ACTIVITY, padj 2.24652e-5", "result": -1.896}, {"measurement": "ES", "setting": "GOMF_NUCLEOCYTOPLASMIC_CARRIER_ACTIVITY", "result": -0.6591}, {"measurement": "NES", "setting": "GOMF_NUCLEOCYTOPLASMIC_CARRIER_ACTIVITY, padj 0.000115181", "result": -2.145}, {"measurement": "ES", "setting": "GOMF_NUCLEOSOME_BINDING", "result": -0.5073}, {"measurement": "NES", "setting": "GOMF_NUCLEOSOME_BINDING, padj 0.00152684", "result": -1.901}, {"measurement": "ES", "setting": "GOMF_NUCLEOTIDYLTRANSFERASE_ACTIVITY", "result": -0.4822}, {"measurement": "NES", "setting": "GOMF_NUCLEOTIDYLTRANSFERASE_ACTIVITY, padj 4.12475e-5", "result": -2.007}, {"measurement": "ES", "setting": "GOMF_N_METHYLTRANSFERASE_ACTIVITY", "result": -0.4852}, {"measurement": "NES", "setting": "GOMF_N_METHYLTRANSFERASE_ACTIVITY, padj 0.000271158", "result": -1.95}, {"measurement": "ES", "setting": "GOMF_OMEGA_PEPTIDASE_ACTIVITY", "result": -0.4572}, {"measurement": "NES", "setting": "GOMF_OMEGA_PEPTIDASE_ACTIVITY, padj 0.00133141", "result": -1.8407}, {"measurement": "ES", "setting": "GOMF_ORGANIC_CATION_TRANSMEMBRANE_TRANSPORTER_ACTIVITY", "result": 0.5091}, {"measurement": "NES", "setting": "GOMF_ORGANIC_CATION_TRANSMEMBRANE_TRANSPORTER_ACTIVITY, padj 0.0936743", "result": 1.697}, {"measurement": "ES", "setting": "GOMF_OXIDOREDUCTASE_ACTIVITY", "result": 0.2552}, {"measurement": "NES", "setting": "GOMF_OXIDOREDUCTASE_ACTIVITY, padj 1.57379e-7", "result": 1.611}, {"measurement": "ES", "setting": "GOMF_OXIDOREDUCTASE_ACTIVITY_ACTING_ON_NAD_P_H", "result": 0.4324}, {"measurement": "NES", "setting": "GOMF_OXIDOREDUCTASE_ACTIVITY_ACTING_ON_NAD_P_H, padj 1.99489e-5", "result": 2.169}, {"measurement": "ES", "setting": "GOMF_OXIDOREDUCTASE_ACTIVITY_ACTING_ON_NAD_P_H_QUINONE_OR_SIMILAR_COMPOUND_AS_ACCEPTOR", "result": 0.5724}, {"measurement": "NES", "setting": "GOMF_OXIDOREDUCTASE_ACTIVITY_ACTING_ON_NAD_P_H_QUINONE_OR_SIMILAR_COMPOUND_AS_ACCEPTOR, padj 2.1943e-6", "result": 2.564}, {"measurement": "ES", "setting": "GOMF_P53_BINDING", "result": -0.4895}, {"measurement": "NES", "setting": "GOMF_P53_BINDING, padj 0.0022957", "result": -1.862}, {"measurement": "ES", "setting": "GOMF_PEPTIDASE_REGULATOR_ACTIVITY", "result": 0.2445}, {"measurement": "NES", "setting": "GOMF_PEPTIDASE_REGULATOR_ACTIVITY, padj 0.0995416", "result": 1.297}, {"measurement": "ES", "setting": "GOMF_PEPTIDE_RECEPTOR_ACTIVITY", "result": 0.272}]}]}
